Some results were stated once for a whole list of compounds, not compound by compound.
Molecular target: T1, recombinant cathepsin S (Homo sapiens, UniProt P25774)
T1 construct: made in house; host or cells: E. coli (pET23a)
Assay: Cathepsin S assay (Z-VVR-AMC fluorogenic substrate)
Format: biochemical
Settings: for IC50: 37° C.

The chains behind the UniProt entries cited, without tags or fusion partners. Residues count along the entry.
UniProt P25774, 115-331: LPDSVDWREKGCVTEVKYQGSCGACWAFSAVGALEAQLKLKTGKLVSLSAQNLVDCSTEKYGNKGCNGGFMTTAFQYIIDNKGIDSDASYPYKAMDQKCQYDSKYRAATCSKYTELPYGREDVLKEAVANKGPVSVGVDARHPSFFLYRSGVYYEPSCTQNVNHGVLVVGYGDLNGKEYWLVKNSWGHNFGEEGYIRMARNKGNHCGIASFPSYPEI

CCOC(=O)CC[C@H](COCc1ccccc1)NC(=O)[C@H](Cc1ccccc1)NC(=O)N1CCOCC1 [Compound 82]
inhibitory activity (cathepsin S): exhibited inhibitory activity

CC(C)C[C@H](NC(=O)OC(C)(C)C)C(=O)NCC#N [Compound 93]
inhibitory activity (cathepsin S): exhibited inhibitory activity

CCOC(=O)CNC(=O)C(=O)C(COCc1ccccc1)NC(=O)[C@H](CC1CCCCC1)NC(=O)C1CCCC1 (stereo partly shown) [Compound 50]
inhibitory activity (cathepsin S): exhibited inhibitory activity
IC50: < 50 nM

CCOC(=O)CNC(=O)C(=O)C(COCc1ccccc1)NC(=O)C(CC1CCCCC1)NC(=O)c1ccc(Cl)c([N+](=O)[O-])c1 (stereo in doubt) [Compound 51, Ethyl 2-[4-(benzyloxy)-3-((2R)-2-[(4-chloro-3-nitrobenzoyl)amino]-3-cyclohexylpropanoylamino)-2-oxobutanoyl]aminoacetate]
inhibitory activity (cathepsin S): exhibited inhibitory activity
IC50: < 50 nM

CCOC(=O)CC[C@@H](COCc1ccccc1)NC(=O)[C@H](Cc1ccccc1)NC(=O)N1CCOCC1 [Compound 80]
inhibitory activity (cathepsin S): exhibited inhibitory activity

CC(C)NC(=O)C(=O)C(COCc1ccccc1)NC(=O)C(CC1CCCCC1)NC(=O)N1CCOCC1 (stereo in doubt) [Compound 63, N4-[(1R)-2-[1-[(benzyloxy)methyl]-3-(isopropylamino)-2,3-dioxopropyl]amino-1-(cyclohexylmethyl)-2-oxoethyl]-4-morpholinecarboxamide]
inhibitory activity (cathepsin S): exhibited inhibitory activity
IC50: < 50 nM

CCOC(=O)CNC(=O)C(=O)C(COCc1ccccc1)NC(=O)[C@H](CC1CCCCC1)NC(=O)/C=C/c1ccccc1 (stereo partly shown) [Compound 18]
inhibitory activity (cathepsin S): exhibited inhibitory activity
IC50: < 50 nM

O=C(CC[C@H](COCc1ccccc1)NC(=O)[C@H](Cc1ccccc1)NC(=O)N1CCOCC1)NCc1ccccc1 [Compound 84]
inhibitory activity (cathepsin S): exhibited inhibitory activity

CCOC(=O)CNC(=O)C(=O)C(COCc1ccccc1)NC(=O)[C@H](CC1CCCCC1)NC(=O)c1ccc(-c2ccc(Cl)cc2)o1 (stereo partly shown) [Compound 58]
inhibitory activity (cathepsin S): exhibited inhibitory activity

O=C(NCn1nnc2ccccc21)C(=O)C(COCc1ccccc1)NC(=O)C(CC1CCCCC1)NC(=O)N1CCOCC1 (stereo in doubt) [Compound 75, N4-[(1R)-2-(3-[(1H-1,2,3-benzotriazol-1-ylmethyl)amino]-1-[(benzyloxy)methyl]-2,3-dioxopropylamino)-1-(cyclohexylmethyl)-2-oxoethyl]-4-morpholinecarboxamide]
inhibitory activity (cathepsin S): exhibited inhibitory activity
IC50: < 50 nM

CCCC(C)NC(=O)C(=O)C(COCc1ccccc1)NC(=O)C(CC1CCCCC1)NC(=O)N1CCOCC1 (stereo in doubt) [Compound 65, N4-[(1R)-2-(1-[(benzyloxy)methyl]-3-[(1-methylbutyl)amino]-2,3-dioxopropylamino)-1-(cyclohexylmethyl)-2-oxoethyl]-4-morpholinecarboxamide]
inhibitory activity (cathepsin S): exhibited inhibitory activity
IC50: < 50 nM

CCOC(=O)CNC(=O)C(=O)C(COCc1ccccc1)NC(=O)[C@H](CC1CCCCC1)NC(=O)c1ccccc1[N+](=O)[O-] (stereo partly shown) [Compound 31]
inhibitory activity (cathepsin S): exhibited inhibitory activity
IC50: < 50 nM

CC(C)C[C@H](NC(=O)[C@H](Cc1ccccc1)NC(=O)c1cnccn1)C(=O)NCc1ccc(F)cc1 [Compound 91]
inhibitory activity (cathepsin S): exhibited inhibitory activity

CC(C)C[C@H](C=O)NC(=O)[C@H](Cc1ccccc1)NC(=O)c1cnccn1 [Compound 97]
inhibitory activity (cathepsin S): exhibited inhibitory activity

CC(C)C[C@H](NC(=O)[C@H](Cc1ccccc1)NC(=O)c1cnccn1)C(=O)NCc1ccc(C(F)(F)F)cc1 [Compound 92]
inhibitory activity (cathepsin S): exhibited inhibitory activity
